Test results: PubChem BioAssay AID540335 (Broad Institute, 2011)
Screen size: about 1,300 compounds; about 270 (21%) were called active.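 Rule for the calls: active = dose-dependent rise or fall in viability, either side of zero, with half-maximal concentration at or below a set limit; inconclusive = flat curve at 30 to 70% viability loss, or poor fit; inactive = flat within 30% either way, or potency beyond limit.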 Some of the results follow. Results with a measured potency or affinity are listed apart.

Assay: A375 melanoma cell viability reduction, dose response, counter-screen for MITF modulator project, cherry-pick samples, set 2 (AID 540335);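 note: A375 human melanoma cells which do not depend on MITF; 0% = median of neutral control wells and 100% = double that signal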
Conditions: CellTiter-Glo ATP luminescence, 24 h; at 35 µM (top of the series)

Structure (SMILES)	activity change, negative = decreased viability
COc1ccc(-c2nc(-c3ccncc3)no2)cc1OC	inactive: -1.96%
c1ccc(-n2ncc3c(NCc4cccs4)ncnc32)cc1	inactive: 12.3%
C=CC[n+]1c(-c2ccc(C)cc2)csc1Nc1ccc(NC(C)=O)cc1	inactive: -2.79%
Cc1ccc(-c2cn3cc(C)ccc3n2)cc1	inactive: -19.5%
COC(=O)C1=C(CN2CCCc3ccccc32)NC(=O)NC1c1ccc(F)cc1 (stereo not drawn)	inactive: 0.771%
O=C1c2ccccc2C(=O)N1CCSc1ccccc1	inactive: -0.093%
COc1ccc(-c2cc(-c3ccccc3O)[nH]n2)cc1OC	inactive: 7.71%
CN(CC(=O)N1CCCCCC1)S(=O)(=O)c1ccccc1	inactive: 3.34%
CCN1CCN(C2=C(NS(=O)(=O)c3ccc(Br)cc3)C(=O)c3ccccc3C2=O)CC1	inactive: -15.8%
COc1cc(C(=O)N/N=C(\c2ccccc2)c2ccccn2)cc(OC)c1OC	inactive: -25.7%
CC(=O)Nc1cccc2c1Cc1ccccc1-2	inactive: 7.8%
COc1cc2ccccc2cc1C(=O)Nc1ccc(N2CCN(C)CC2)cc1	inactive: -1.65%
O=C(Nc1ccc(N2CCN(C(=O)c3ccc(Cl)cc3)CC2)cc1)c1ccc([N+](=O)[O-])o1	inactive: 20.7%
Cc1cc(/C(N)=N/OC(=O)c2ccc(Cl)cc2)no1	inactive: 7.61%
Cc1cc(N2CCOCC2)n2ncc(-c3ccccc3Cl)c2n1	inactive: 10.9%
O=C(CSc1ccc(Cl)cc1)NC1CCCC1	inactive: 8.2%
O=c1c2ccccc2cnn1CCOc1ccccc1	inactive: -29.7%
c1ccc(-c2cn3nc4c(nc3n2)CCCC4)cc1	inactive: -31.4%
Cc1cc2oc3ccc(NCCC4CCCN4C)cc3c(=O)c2cc1C (stereo not drawn)	inactive: -96.9%
CC(C)(C)C1CCC(OC(=O)CN2CCCCC2)CC1 (stereo not drawn)	inactive: 8.7%
COc1cc2c(c(OC)c1OC)-c1ccc(N(C)CC(OC)OC)c(=O)cc1[C@@H](NC(C)=O)CC2	inactive: 5.25%
CCOC(=O)c1ccc2nc(C)c(CCC(C)=O)c(Cl)c2c1	inactive: 13.2%
CCCCOC(=O)Nc1ccc2c(C)cc(=O)oc2c1	inactive: 7.51%
COc1ccc(S(=O)(=O)N2CCCCC2)cc1NC(=O)c1ccc([N+](=O)[O-])o1	inactive: -19.1%
Cc1nc(SCC(=O)Nc2ccc(CN3CCCC3)cc2)c2c(C)c(C)sc2n1	inactive: -4.46%

Single entries from the results shown:
Value of CCOC(=O)c1ccc2nc(C)c(CCC(C)=O)c(Cl)c2c1 under activity change, negative = decreased viability: inactive: 13.2%
Value of Cc1cc(/C(N)=N/OC(=O)c2ccc(Cl)cc2)no1 under activity change, negative = decreased viability: inactive: 7.61%
Value of c1ccc(-n2ncc3c(NCc4cccs4)ncnc32)cc1 under activity change, negative = decreased viability: inactive: 12.3%
Value of Cc1nc(SCC(=O)Nc2ccc(CN3CCCC3)cc2)c2c(C)c(C)sc2n1 under activity change, negative = decreased viability: inactive: -4.46%
Value of Cc1cc2oc3ccc(NCCC4CCCN4C)cc3c(=O)c2cc1C (stereo not drawn) under activity change, negative = decreased viability: inactive: -96.9%
Value of COc1ccc(S(=O)(=O)N2CCCCC2)cc1NC(=O)c1ccc([N+](=O)[O-])o1 under activity change, negative = decreased viability: inactive: -19.1%
Value of O=c1c2ccccc2cnn1CCOc1ccccc1 under activity change, negative = decreased viability: inactive: -29.7%

Continued:

Structure (SMILES)	activity change, negative = decreased viability
CN(CCC#N)C(=O)COC(=O)c1ccccc1C(=O)c1ccc(Cl)c([N+](=O)[O-])c1	inactive: 54.4%
Cc1cc(-n2c(C)cc(C(=O)CCl)c2C)no1	inactive: -29.3%
CCCCNc1nc(=S)n(-c2ccccc2)c(C)c1C(C)=O	inactive: 8.62%
Cc1cccnc1NC(=O)NC(=O)c1ccc(C(C)(C)C)s1	inactive: 3.2%
Cc1ccccc1-n1ncc2c([N+](=O)[O-])cc([N+](=O)[O-])cc21	inactive: -0.302%
N#CC1=C(c2ccccc2)/C(=C/c2ccccc2)OC1=O	inactive: -19.5%
C/C(=N\Nc1nccnc1Cl)c1ccc(O)c(C)c1	inactive: 6.7%
Oc1ccc(CNc2ccccc2F)c2cccnc12	inactive: -3.58%
CCN(C(=O)c1ccco1)c1nc(-c2ccc(OC)cc2)cs1	inactive: -7.94%
O=C(N/N=C\c1cc(Br)ccc1O)c1ccc(S(=O)(=O)N2CCCCC2)cc1	inactive: -15.3%
COc1ccc(C(=O)NC(=O)Nc2cc(C)ccn2)cc1	inactive: -17.4%
N#C/C(=C\C=C\c1ccccc1[N+](=O)[O-])C(=O)NCc1ccccc1	inactive: 0.185%
O=C1c2cc(F)ccc2-n2c1nc1ccccc1c2=O	inactive: -37.3%
CN(C)C1CCN(Cc2cc(COCc3ccccc3)c3cccnc3c2O)C1 (stereo not drawn)	inactive: -37.2%
CC1CC(C)CN(C(=O)/C=C/c2ccc([N+](=O)[O-])s2)C1 (stereo not drawn)	inactive: -6.24%
O=C1/C(=C/c2ccccc2[N+](=O)[O-])COc2ccccc21	inactive: 116%
Cc1nn2c(N)c(-c3ccccc3)cnc2c1-c1ccccc1	inactive: 3.49%
O=C(O)c1ccc(Nc2nc3c(s2)CCCC3)cc1	inactive: 3.63%
COc1ccc(NC(=O)c2cc3ccccc3oc2=O)c(OC)c1	inactive: 4.04%
CN(C)c1ccc(C2=NOC(CN3C(=O)c4ccccc4S3(=O)=O)C2)cc1 (stereo not drawn)	inactive: 1.39%
OCC1OC(n2cnc3c(NCc4ccco4)ncnc32)C(O)C1O (stereo not drawn)	inactive: -25.3%
COc1ccc(/C=N/Nc2ccccn2)cc1OC	inactive: 1.22%
COc1ccccc1OCC(=O)N/N=C/C=C/c1ccc([N+](=O)[O-])o1	inactive: -17.1%
COc1ccc(/C=C2\Sc3ccc(C(=O)NCCN4CCCCCC4)cc3N(C)C2=O)cc1	inactive: -19.8%
O=C(c1ccc([N+](=O)[O-])s1)N1CCN(c2ccccn2)CC1	inactive: 2.25%

Structure (SMILES)	activity change, negative = decreased viability
CCOC(=O)c1c(C)oc2c(F)c(F)c(F)c(F)c2c1=O	inactive: -17.5%
O=C(N/N=C/c1cc(Cl)ccc1O)c1ccncc1	inactive: -31%
Cc1ccc(C(CNS(=O)(=O)c2ccc(Br)cc2)N2CCN(C)CC2)cc1 (stereo not drawn)	inactive: -15.8%
COc1ccccc1/C=C/C=N/NC(=O)c1cccs1	inactive: 5.11%
COc1cccc(/C=N/Nc2ncnc3c2ncn3Cc2ccccc2)c1O	inactive: -33.2%
CNc1oc(/C=C/c2cccc(OC)c2)nc1C#N	inactive: 13.1%
CC(C)C(=O)Nc1ccc2nn(-c3ccc(F)cc3)nc2c1	inactive: 9.97%
Cc1ccc(-c2cn3nc(C)c(C)nc3n2)cc1	inactive: -18.3%
COC(=O)c1ccc(/C=N/Nc2nc(C)c(C)s2)cc1	inactive: -2.98%
CS(=O)(=O)c1ccc2nc(NC(=O)c3ccccc3)sc2c1	inactive: -10.8%
COc1cccc(-c2ccc3c(N)c(C(=O)NC4CC4)sc3n2)c1	inactive: 13.8%
Cc1cnc(NC(=O)c2nn(C)cc2[N+](=O)[O-])s1	inactive: 0.417%
NC(=O)c1c(NC(=O)c2cccnc2)sc2c1CCCCC2	inactive: 8.24%
OCC1CCCC(n2cnc3c(=S)nc[nH]c32)O1 (stereo not drawn)	inactive: 9.92%
Cc1ccccc1NCc1nc2ccccc2n1C	inactive: -17.8%
Cn1nnnc1Sc1ncnc2scc(-c3cccc(F)c3)c12	inactive: 12.1%
COCc1cc(C)nc2sc(C(=O)Nc3cccc(OC)c3)c(N)c12	inactive: 9.9%
Cc1ccc2oc(Nc3nc(C)c(C)c(C)n3)nc2c1	inactive: 3.65%
Cc1ccc(-c2nc(-c3ccncc3)no2)cc1C	inactive: 8.87%
O=C(CCC1CCCN(C(=O)c2cc3ccccc3o2)C1)NCc1ccc(F)c(F)c1 (stereo not drawn)	inactive: 16.4%
CN(c1ccc(O)cc1)c1nc(O)c(C2=c3ccccc3=NC2=O)s1	inactive: 8.99%
O=C(N/N=C/c1cccc(Oc2ccc([N+](=O)[O-])cc2[N+](=O)[O-])c1)c1cncc(Br)c1	inactive: -6.16%
NCCN1C(=O)S/C(=C\c2ccc3c(c2)OCO3)C1=O	inactive: 8.91%
Cc1ccc(-c2noc(CN3CCCCC3)n2)cc1	inactive: -4.18%
COc1cc(/C=N/NS(=O)(=O)c2ccc(C)cc2)ccc1OCc1cccc(C(=O)O)c1	inactive: -6.1%

Structure (SMILES)	activity change, negative = decreased viability
Nc1nnc(/C=C/c2ccccc2Cl)s1	inactive: 5.9%
CCOc1ccc(C(=O)N2CCc3ccccc32)cc1	inactive: 7.33%
COc1ccc2nc(N3CCN(C(=O)c4ccc([N+](=O)[O-])o4)CC3)sc2c1	inactive: 5.07%
O=C(Nc1ccccc1N1CCOCC1)c1ccc([N+](=O)[O-])o1	inactive: -5.46%
CC(C)c1nnc(NC(=O)CCC2CCCCC2)s1	inactive: 6.1%
CCN(CC)C(=O)CCCOc1ccc(Cl)cc1Cl	inactive: 2.77%
COc1ccc(C(=O)Nc2ccc(C)cn2)c(OC)c1	inactive: -36.8%
Cn1nnnc1Sc1ncnc2scc(-c3cccs3)c12	inactive: 6.26%
Cc1oc(-c2ccc(Cl)cc2)nc1CN1CCC(C(=O)NCCCN2CCCC(C)C2)CC1 (stereo not drawn)	inactive: -19.6%
Cc1c(/C=C/C(=O)c2ccc(Cl)s2)cnn1C	inactive: 0.007%
C/C(=N/N=C(/C)c1cccs1)c1cccs1	inactive: 0.599%
C[C@H]1CCC[C@]2(C)C[C@H]3OC(=O)C(CN4CCCCCC4)[C@H]3C=C12 (stereo partly drawn)	inactive: -9.08%
COc1cc(/C=N/NS(=O)(=O)c2ccc3ccccc3c2)ccc1OCc1ccc(C(=O)O)cc1	inactive: 1.79%
Cc1c(C#N)c(O)n(CCO)c(=O)c1N=Nc1ccc2c(c1)COC2=O	inactive: -7.95%
Cc1cc(Cl)ccc1NC(=O)c1ccc2c(c1)OCO2	inactive: 7.61%
CC1CCC(C(C)C)C(OC(=O)C[n+]2cc(-c3ccc(Cl)cc3)n3c2CCCCC3)C1 (stereo not drawn)	inactive: -67.3%
O=[N+]([O-])c1cccc(/C=N/Nc2ncc(Br)cn2)c1	inactive: 10.8%
COc1ccc(COC(=O)c2cc([N+](=O)[O-])ccc2N2CCOCC2)cc1F	inactive: -1.95%
CN(C)CCCNc1nc2sc3c(c2c(=O)n1CCc1ccccc1)CCCCC3	inactive: -16.3%
O=C(Nc1nc2ccccc2s1)Nc1ccc(F)cc1F	inactive: -7.29%
O=C(COC(=O)c1ccccc1C(=O)c1ccc(Cl)c([N+](=O)[O-])c1)NC1CC1	inactive: 16.1%
N/C(=N\OC(=O)c1ccccc1Cl)c1cccc([N+](=O)[O-])c1	inactive: 0.706%
O=C(Nc1ccccc1N1CCN(C(=O)c2ccccc2)CC1)c1ccc([N+](=O)[O-])o1	inactive: 4.91%
